Screen size: about 400,000 compounds; about 13,000 (3.2%) were called active. Inconclusive results, whose numbers are uncertain, are shown with a selection of clear calls. Calls come from the whole dose curve; as a rule, active = well fitted cell-killing curve with a large enough effect; inconclusive = small, poorly fitted or top-dose-only effect, or effect the other way; inactive = flat fitted curve, though single readings scatter. Where the call is inconclusive, the potency comes from a doubtful curve fit.
Assay: qHTS assay for MDR1-selective chemotherapeutics: Primary screen using the drug-selected MDR subline cells KB-V1; note: nearly all actives have a fitted effect of over 60% in size
Conditions: KB-V1 MDR cells viability, CellTiter-Glo, 72 h; series mostly up to 46.1 µM
In short: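 Luminescent ATP read-out (CellTiter-Glo, 10 min) measures survival of drug-selected KB-V1 MDR cells after 72 h, 37 degrees C compound exposure. Medium: phenol-red-free DMEM, 10% FBS. Values from fitted concentration-response curves.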
Potency is the fitted concentration of half-maximal effect.

Row | SMILES | Potency
1 | COc1ccc(NC(=S)NNC(=O)CNc2ccc(Cl)cc2)cc1 | inactive
2 | O=C1CCCCCC(=O)[C@H](O)C[C@H](c2ccccc2)O1 | inconclusive: 23.1 µM [cytotoxic, partial curve, poor fit]
3 | COc1ccc(OC)c(CCNC(=O)c2ccc3[nH]c(C)c(C)c3c2)c1 | inactive
4 | CC(C)Nc1nc(NCCOc2ccccc2)c2sccc2n1 | inconclusive: 8.2 µM [cytotoxic, partial curve]
5 | CCOC(=O)c1c(CN(CC)CC)oc2ccc(OC)cc12 | inconclusive: 5.17 µM [cytotoxic, full curve, poor fit]
6 | Cc1ccc2c(c1)N(Cc1ccncc1)C(=O)C(C)O2 (configuration not stated) | inconclusive: 13 µM [cytotoxic, single point]
7 | O=C(CSc1nnnn1-c1ccccc1)N1CCCc2ccccc21 | inconclusive: 16.4 µM [cytotoxic, single point]
8 | COC(=O)C1=CN(c2ccc(OC)cc2OC)C(N)=C(C#N)C1c1cccc([N+](=O)[O-])c1 (configuration not stated) | active: 2.31 µM
9 | CCCn1nc(NC(=O)CC)c2cc3cccc(C)c3nc21 | inactive
10 | Cn1c(C(=O)NCCC2=CCCCC2)cc2c(=O)n3ccccc3nc21 | inactive
11 | Cc1ccc(-c2nc3ncccn3c2Nc2ccccc2C)o1 | inactive
12 | COc1ccc(S(=O)(=O)N2CCCCCC2)cc1C(=O)NCCc1ccc(F)cc1 | inconclusive: 2.31 µM [rising, full curve]
13 | Clc1ccc(OCCn2ccnc2)c(Cl)c1 | inconclusive: 18.4 µM [cytotoxic, single point]
14 | Cc1ccccc1CN1C(=O)C2(OCCCO2)c2ccccc21 | inactive
15 | COc1ccc(C(=O)N2CCCC(c3ccccc3)C2)cc1 (configuration not stated) | inconclusive: 18.4 µM [cytotoxic, single point]
16 | CN1C(=S)SC(N(O)C(=O)NC2CCCCC2)C1(C)C (configuration not stated) | inconclusive: 25.9 µM [cytotoxic, single point]
17 | Cc1cccc(N2CCN(c3ccc(N4C(=O)CCCC4=O)cc3[N+](=O)[O-])CC2)c1C | inconclusive: 8.2 µM [cytotoxic, partial curve]
18 | COc1cc(OC)cc(C(=O)N/N=C/c2ccc(OC)c(COc3ccc4ccccc4c3)c2)c1 | inconclusive: 13 µM [cytotoxic, partial curve]
19 | O=C(COC(=O)c1ccc(Cl)nc1)NNC(=O)c1ccc(Cl)cc1 | inactive
20 | COc1ccccc1CCNC(=O)CCc1c(C)c2cc3c(C)coc3cc2oc1=O | inactive
21 | CC(C)(C)c1ccc(Oc2ccc(NC(=O)c3cccs3)cn2)cc1 | inconclusive: 29.1 µM [cytotoxic, single point]
22 | CO[C@H]1CN(C)C(=O)c2ccc(NC(=O)C3CCC3)cc2OC[C@H](C)N(CC2CCCCC2)C[C@@H]1C | inconclusive: 10.3 µM [cytotoxic, partial curve, poor fit]
23 | CCn1ccc2cc(S(=O)(=O)N3CCC(C(=O)NCCOC)CC3)ccc21 | inconclusive: 13 µM [rising, partial curve]
24 | COCCN(C(=O)CSc1nnc2cc(C)c3ccccc3n12)c1c(N)n(Cc2ccccc2)c(=O)[nH]c1=O | inconclusive: 18.4 µM [rising, single point]

Some of the entries so far, as tab-separated lines:
Row	SMILES	Potency
11	Cc1ccc(-c2nc3ncccn3c2Nc2ccccc2C)o1	inactive
22	CO[C@H]1CN(C)C(=O)c2ccc(NC(=O)C3CCC3)cc2OC[C@H](C)N(CC2CCCCC2)C[C@@H]1C	inconclusive: 10.3 µM [cytotoxic, partial curve, poor fit]

Carrying on:

Row | SMILES | Potency
25 | COc1ccc(C(C)NC(=O)c2ccncc2)cc1OC (configuration not stated) | inconclusive: 16.4 µM [rising, single point]
26 | Cc1ccc(Oc2ccc(NC(=O)C3=CC=CN4CCS(=O)(=O)N=C34)cc2)cc1 | inactive
27 | CCOc1ccccc1CNC(=O)c1[nH]c2ccccc2c1Sc1ccccc1 | inconclusive: 29.1 µM [cytotoxic, single point]
28 | O=C1c2ccccc2C(c2nnnn2-c2ccc3c(c2)OCCO3)N1Cc1ccc2c(c1)OCO2 (configuration not stated) | inconclusive: 8.2 µM [cytotoxic, partial curve]
29 | CCc1nc2ccc(C(=O)NCCc3ccc(OC)c(OC)c3)cc2nc1CC | inactive
30 | Cc1cc(N(C)C)cc(C)c1/C=C/c1ccnc2ccccc12 | inconclusive: 20.6 µM [cytotoxic, single point]
31 | CCn1nc(C)c(CN2CCc3c([nH]c4ccccc34)C2c2ccc(F)c(OC)c2)c1C (configuration not stated) | inconclusive: 23.1 µM [cytotoxic, single point]
32 | CN(C)CCCNC1=CC(=O)CC(c2ccccc2)C1 (configuration not stated) | inactive
33 | O=C(COc1cccc2cccnc12)N/N=C/c1ccccc1O | active: 11.6 µM
34 | NC(=S)N(c1ccccc1)c1ccccc1 | inactive
35 | O=C1CSC(c2ccccc2Br)N1c1ccc(Cl)cn1 (configuration not stated) | inconclusive: 20.6 µM [cytotoxic, partial curve, poor fit]
36 | CC1=NN(c2ccccc2)C(=O)C1N=Nc1ccccc1 (configuration not stated) | inconclusive: 29.1 µM [cytotoxic, single point]
37 | COc1ccc(/C=C2\Oc3cc(OCC(=O)N4CC(O)C[C@H]4C(=O)O)ccc3C2=O)cc1OC (some centres not stated) | inconclusive: 20.6 µM [rising, single point]
38 | O=C(COc1ccc(Cl)cc1Cl)N/N=C/CCc1ccccc1 | inactive
39 | CCSc1nnc(NC(=O)COc2ccccc2)s1 | inactive
40 | Cc1nn2c(C(F)(F)F)cc(-c3ccc(OC(C)C)cc3)nc2c1C#N | inactive
41 | CC1CCCCC1NS(=O)(=O)CCNC(=O)c1ccccc1 (configuration not stated) | active: 20.6 µM
42 | N#Cc1ccccc1Sc1ccccc1C(=O)Nc1ccc2ccccc2c1 | inactive
43 | CC(=O)N1CCN(C(=S)Nc2ccc(SC(F)F)cc2)CC1 | active: 20.6 µM
44 | O=C(Nc1ccc2c(c1)oc1ccc(S(=O)(=O)N3CCCC3)cc12)C1CC1 | inconclusive: 29.1 µM [cytotoxic, single point]
45 | Cc1n[nH]c(C)c1S(=O)(=O)NCCc1ccc(Cl)cc1 | inconclusive: 18.4 µM [cytotoxic, partial curve, poor fit]
46 | COc1ccccc1C(CC(=O)Nc1ccc(Cl)cc1)c1ccc(OC(C)C)cc1 (configuration not stated) | inconclusive: 13 µM [cytotoxic, partial curve, poor fit]
47 | CCN1CCN(C2=C(NS(=O)(=O)c3ccccc3)C(=O)c3ccccc3C2=O)CC1 | inconclusive: 29.1 µM [cytotoxic, single point]

A second format for 2 compounds above.
Row	SMILES	Potency
30	Cc1cc(N(C)C)cc(C)c1/C=C/c1ccnc2ccccc12	inconclusive: 20.6 µM [cytotoxic, single point]
34	NC(=S)N(c1ccccc1)c1ccccc1	inactive

Reference: PubChem BioAssay AID1347076 (National Center for Advancing Translational Sciences (NCATS), 2019)
